Laboratory results reported in patent US12133878B2, “Pharmaceutical compositions having a selected release duration” (Foresee Pharmaceuticals Co., Ltd., priority 2017, dated 2024).
Some results were stated once for a whole list of compounds, not compound by compound.

Conditions: room temperature, after 6 months

## CCNC(=O)[C@@H]1CCCN1C(=O)[C@H](CCCNC(=N)N)NC(=O)[C@H](CC(C)C)NC(=O)[C@@H](CC(C)C)NC(=O)[C@H](Cc1ccc(O)cc1)NC(=O)[C@H](CO)NC(=O)[C@H](Cc1c[nH]c2ccccc12)NC(=O)[C@H](Cc1c[nH]cn1)NC(=O)[C@@H]1CCC(=O)N1 [leuprolide acetate]
  molecular weight of PLGA decreased, comparing to blank control: more than 90%
